Measurements: publication PMC8254283
Results are given in words; binding and its absence hold for the method and conditions named. Binding seen in cells or lysates may run through a third protein. Here binding means that the protein was enriched with, or labelled near, the bait; the list need not be complete. For some of these results: A no says only that the protein was not detected with the bait. Values belong to the molecule of their own block, whether it stands above or below them.

Chains of the proteins cited; added tags and fusions are not shown. Lines headed by an entry give the natural chain unless they say otherwise; changes in a name come on top.
UniProt Q8TEK3: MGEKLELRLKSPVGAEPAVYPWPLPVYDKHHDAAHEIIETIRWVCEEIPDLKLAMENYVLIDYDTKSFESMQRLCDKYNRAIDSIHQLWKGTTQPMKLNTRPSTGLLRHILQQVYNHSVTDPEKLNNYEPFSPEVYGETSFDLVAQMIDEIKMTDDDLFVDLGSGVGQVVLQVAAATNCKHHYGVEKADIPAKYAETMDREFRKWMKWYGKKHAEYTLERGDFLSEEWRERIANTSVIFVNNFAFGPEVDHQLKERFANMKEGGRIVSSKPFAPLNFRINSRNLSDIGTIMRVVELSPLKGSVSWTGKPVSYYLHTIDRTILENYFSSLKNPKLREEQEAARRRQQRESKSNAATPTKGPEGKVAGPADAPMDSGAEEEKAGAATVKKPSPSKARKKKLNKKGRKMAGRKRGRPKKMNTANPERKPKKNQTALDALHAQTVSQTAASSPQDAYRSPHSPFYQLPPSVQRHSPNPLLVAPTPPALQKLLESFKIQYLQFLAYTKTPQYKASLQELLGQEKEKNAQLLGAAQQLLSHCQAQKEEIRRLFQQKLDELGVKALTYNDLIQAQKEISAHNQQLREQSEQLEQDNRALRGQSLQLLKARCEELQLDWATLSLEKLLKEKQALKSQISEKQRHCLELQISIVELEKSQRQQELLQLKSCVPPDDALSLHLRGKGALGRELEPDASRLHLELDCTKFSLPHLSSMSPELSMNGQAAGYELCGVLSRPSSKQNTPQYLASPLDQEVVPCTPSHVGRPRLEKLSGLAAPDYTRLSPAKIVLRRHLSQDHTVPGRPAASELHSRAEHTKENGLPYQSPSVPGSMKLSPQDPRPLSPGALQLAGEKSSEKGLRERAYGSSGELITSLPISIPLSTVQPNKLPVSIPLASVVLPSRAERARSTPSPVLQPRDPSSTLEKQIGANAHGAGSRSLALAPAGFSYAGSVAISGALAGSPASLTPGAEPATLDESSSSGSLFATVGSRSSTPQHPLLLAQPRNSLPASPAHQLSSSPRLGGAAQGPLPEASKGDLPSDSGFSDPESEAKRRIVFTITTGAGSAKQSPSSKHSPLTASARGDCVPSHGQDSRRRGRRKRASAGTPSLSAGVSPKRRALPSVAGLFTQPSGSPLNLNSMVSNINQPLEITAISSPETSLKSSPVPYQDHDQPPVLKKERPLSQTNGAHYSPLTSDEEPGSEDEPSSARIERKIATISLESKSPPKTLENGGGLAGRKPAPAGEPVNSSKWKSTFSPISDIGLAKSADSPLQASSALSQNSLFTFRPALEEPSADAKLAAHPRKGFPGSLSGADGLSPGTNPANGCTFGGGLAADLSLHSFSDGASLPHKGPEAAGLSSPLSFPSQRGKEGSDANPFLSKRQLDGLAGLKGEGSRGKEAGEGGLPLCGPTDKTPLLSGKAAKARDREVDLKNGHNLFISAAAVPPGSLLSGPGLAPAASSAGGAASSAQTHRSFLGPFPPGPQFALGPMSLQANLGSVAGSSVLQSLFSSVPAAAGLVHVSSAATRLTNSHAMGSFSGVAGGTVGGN
UniProt Q9NR30: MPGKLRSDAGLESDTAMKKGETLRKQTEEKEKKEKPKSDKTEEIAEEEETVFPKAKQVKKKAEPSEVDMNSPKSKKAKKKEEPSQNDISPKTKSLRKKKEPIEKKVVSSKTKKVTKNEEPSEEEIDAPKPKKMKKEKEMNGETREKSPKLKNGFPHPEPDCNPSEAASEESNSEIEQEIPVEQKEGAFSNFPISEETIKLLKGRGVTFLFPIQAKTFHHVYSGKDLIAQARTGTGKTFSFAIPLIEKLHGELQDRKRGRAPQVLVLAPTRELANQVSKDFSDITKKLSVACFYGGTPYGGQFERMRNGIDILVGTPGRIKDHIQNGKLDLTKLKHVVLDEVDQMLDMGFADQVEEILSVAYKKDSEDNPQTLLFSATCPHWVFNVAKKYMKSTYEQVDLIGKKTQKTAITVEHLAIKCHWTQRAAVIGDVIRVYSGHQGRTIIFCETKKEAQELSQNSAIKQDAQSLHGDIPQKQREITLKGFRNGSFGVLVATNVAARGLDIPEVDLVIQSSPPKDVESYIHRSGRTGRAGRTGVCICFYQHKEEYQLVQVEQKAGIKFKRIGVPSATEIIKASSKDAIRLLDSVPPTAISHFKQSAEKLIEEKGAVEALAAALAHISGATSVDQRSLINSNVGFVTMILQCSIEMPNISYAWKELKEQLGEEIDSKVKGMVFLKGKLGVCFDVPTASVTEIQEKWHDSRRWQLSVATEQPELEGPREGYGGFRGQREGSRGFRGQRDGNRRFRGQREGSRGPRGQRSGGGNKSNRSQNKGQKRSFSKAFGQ
UniProt Q14980: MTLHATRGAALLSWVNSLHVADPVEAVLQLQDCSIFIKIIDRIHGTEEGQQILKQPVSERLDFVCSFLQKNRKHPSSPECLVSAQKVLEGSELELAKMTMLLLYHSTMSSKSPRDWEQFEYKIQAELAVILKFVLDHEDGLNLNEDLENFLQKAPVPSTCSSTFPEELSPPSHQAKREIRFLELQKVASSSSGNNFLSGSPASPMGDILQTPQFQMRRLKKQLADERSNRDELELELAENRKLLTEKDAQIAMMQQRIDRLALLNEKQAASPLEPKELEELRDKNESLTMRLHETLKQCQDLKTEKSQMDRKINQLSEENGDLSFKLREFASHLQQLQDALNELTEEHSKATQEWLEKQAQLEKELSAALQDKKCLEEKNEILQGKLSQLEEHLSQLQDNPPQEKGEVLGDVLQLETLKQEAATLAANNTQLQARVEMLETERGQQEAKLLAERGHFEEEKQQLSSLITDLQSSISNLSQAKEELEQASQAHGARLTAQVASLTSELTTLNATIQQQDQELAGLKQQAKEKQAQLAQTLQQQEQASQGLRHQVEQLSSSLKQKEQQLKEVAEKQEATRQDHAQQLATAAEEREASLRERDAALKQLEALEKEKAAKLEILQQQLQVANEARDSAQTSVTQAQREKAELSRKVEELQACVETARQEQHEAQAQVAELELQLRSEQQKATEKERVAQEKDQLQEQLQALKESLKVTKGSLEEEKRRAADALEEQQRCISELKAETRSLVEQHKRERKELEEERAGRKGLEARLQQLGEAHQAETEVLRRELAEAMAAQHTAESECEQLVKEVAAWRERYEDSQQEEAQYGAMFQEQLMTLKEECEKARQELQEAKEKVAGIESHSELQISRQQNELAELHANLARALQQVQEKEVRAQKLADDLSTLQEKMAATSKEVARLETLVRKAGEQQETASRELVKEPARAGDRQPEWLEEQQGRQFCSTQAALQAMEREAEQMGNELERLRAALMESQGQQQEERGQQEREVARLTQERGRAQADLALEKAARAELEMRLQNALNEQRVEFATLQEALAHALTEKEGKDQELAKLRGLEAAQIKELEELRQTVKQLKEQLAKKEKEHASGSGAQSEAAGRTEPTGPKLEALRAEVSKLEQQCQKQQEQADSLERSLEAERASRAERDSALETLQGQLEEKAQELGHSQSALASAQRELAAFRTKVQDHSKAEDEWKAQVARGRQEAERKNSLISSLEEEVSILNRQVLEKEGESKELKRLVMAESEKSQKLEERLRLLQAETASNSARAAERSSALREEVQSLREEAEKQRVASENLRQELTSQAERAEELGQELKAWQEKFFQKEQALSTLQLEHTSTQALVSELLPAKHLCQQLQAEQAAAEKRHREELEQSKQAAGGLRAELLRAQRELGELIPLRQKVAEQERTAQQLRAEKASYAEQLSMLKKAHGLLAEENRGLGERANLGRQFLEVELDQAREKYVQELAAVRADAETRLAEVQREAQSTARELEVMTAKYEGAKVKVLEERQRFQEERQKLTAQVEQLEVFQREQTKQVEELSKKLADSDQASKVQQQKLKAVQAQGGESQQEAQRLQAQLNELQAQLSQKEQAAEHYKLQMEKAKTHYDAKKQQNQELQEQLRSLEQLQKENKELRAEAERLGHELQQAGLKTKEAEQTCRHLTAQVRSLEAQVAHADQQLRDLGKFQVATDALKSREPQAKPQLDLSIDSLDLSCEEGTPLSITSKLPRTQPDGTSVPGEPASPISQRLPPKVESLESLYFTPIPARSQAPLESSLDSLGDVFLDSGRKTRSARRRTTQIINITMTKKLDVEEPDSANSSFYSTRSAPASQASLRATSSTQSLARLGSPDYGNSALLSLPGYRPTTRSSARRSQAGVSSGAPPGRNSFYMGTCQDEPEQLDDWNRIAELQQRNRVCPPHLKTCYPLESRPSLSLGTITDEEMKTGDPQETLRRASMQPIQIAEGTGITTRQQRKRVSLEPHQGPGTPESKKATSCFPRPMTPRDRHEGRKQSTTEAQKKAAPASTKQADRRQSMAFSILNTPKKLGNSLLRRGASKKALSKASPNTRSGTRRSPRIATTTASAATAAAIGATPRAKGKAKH

Assays:
[1] = molecular target: BirA*-DOT1L fusion protein, wild type (UniProt Q8TEK3); assay: proximity labelling; BioID: HEK-293T cells with lentiviral BirA*-DOT1L (WT or MUT), 50 μM D-biotin 24 h, nuclear fraction, streptavidin bead pull-down, on-bead trypsin digestion, LC-MS/MS; proteins of uninfected control cells subtracted; two technical replicates
[2] = molecular target: BirA*-DOT1L fusion protein, catalytically dead mutant (G163R/S164C/G165R) (UniProt Q8TEK3); assay: as above
[3] = molecular target: BirA*-DOT1L fusion protein, wild type (UniProt Q8TEK3); assay: as above; remark: listed apart in the source
[4] = molecular target: BirA*-DOT1L fusion protein, wild type (UniProt Q8TEK3); assay: proximity labelling; BioID with blot: cells expressing BioID-DOT1L and GFP, WT-AF10 or OM-LZΔ AF10, 50 μM D-biotin 24 h, streptavidin pull-down, immunoblot for AF10

Molecule: DDX21 (from UniProt Q9NR30 1-783)
binding [1]: binds

B1: AF10 (MLLT10), endogenous (protein, UniProt P55197 1-1068)
chain: MVSSDRPVSLEDEVSHSMKEMIGGCCVCSDERGWAENPLVYCDGHGCSVAVHQACYGIVQVPTGPWFCRKCESQERAARVRCELCPHKDGALKRTDNGGWAHVVCALYIPEVQFANVSTMEPIVLQSVPHDRYNKTCYICDEQGRESKAATGACMTCNKHGCRQAFHVTCAQFAGLLCEEEGNGADNVQYCGYCKYHFSKLKKSKRGSNRSYDQSLSDSSSHSQDKHHEKEKKKYKEKDKHKQKHKKQPEPSPALVPSLTVTTEKTYTSTSNNSISGSLKRLEDTTARFTNANFQEVSAHTSSGKDVSETRGSEGKGKKSSAHSSGQRGRKPGGGRNPGTTVSAASPFPQGSFSGTPGSVKSSSGSSVQSPQDFLSFTDSDLRNDSYSHSQQSSATKDVHKGESGSQEGGVNSFSTLIGLPSTSAVTSQPKSFENSPGDLGNSSLPTAGYKRAQTSGIEEETVKEKKRKGNKQSKHGPGRPKGNKNQENVSHLSVSSASPTSSVASAAGSITSSSLQKSPTLLRNGSLQSLSVGSSPVGSEISMQYRHDGACPTTTFSELLNAIHNGIYNSNDVAVSFPNVVSGSGSSTPVSSSHLPQQSSGHLQQVGALSPSAVSSAAPAVATTQANTLSGSSLSQAPSHMYGNRSNSSMAALIAQSENNQTDQDLGDNSRNLVGRGSSPRGSLSPRSPVSSLQIRYDQPGNSSLENLPPVAASIEQLLERQWSEGQQFLLEQGTPSDILGMLKSLHQLQVENRRLEEQIKNLTAKKERLQLLNAQLSVPFPTITANPSPSHQIHTFSAQTAPTTDSLNSSKSPHIGNSFLPDNSLPVLNQDLTSSGQSTSSSSALSTPPPAGQSPAQQGSGVSGVQQVNGVTVGALASGMQPVTSTIPAVSAVGGIIGALPGNQLAINGIVGALNGVMQTPVTMSQNPTPLTHTTVPPNATHPMPATLTNSASGLGLLSDQQRQILIHQQQFQQLLNSQQLTPEQHQAFLYQLMQHHHQQHHQPELQQLQIPGPTQIPINNLLAGTQAPPLHTATTNPFLTIHGDNASQKVARLSDKTGPVAQEKS
binding [2]: no binding
binding [3]: binds

B4: NONO (protein, UniProt Q15233 1-471)
chain: MQSNKTFNLEKQNHTPRKHHQHHHQQQHHQQQQQQPPPPPIPANGQQASSQNEGLTIDLKNFRKPGEKTFTQRSRLFVGNLPPDITEEEMRKLFEKYGKAGEVFIHKDKGFGFIRLETRTLAEIAKVELDNMPLRGKQLRVRFACHSASLTVRNLPQYVSNELLEEAFSVFGQVERAVVIVDDRGRPSGKGIVEFSGKPAARKALDRCSEGSFLLTTFPRPVTVEPMDQLDDEEGLPEKLVIKNQQFHKEREQPPRFAQPGSFEYEYAMRWKALIEMEKQQQDQVDRNIKEAREKLEMEMEAARHEHQVMLMRQDLMRRQEELRRMEELHNQEVQKRKQLELRQEEERRRREEEMRRQQEEMMRRQQEGFKGTFPDAREQEIRMGQMAMGGAMGINNRGAMPPAPVPAGTPAPPGPATMMPDGTLGLTPPTTERFGQAATMEGIGAIGGTPPAFNRAAPGAEFAPNKRRRY
binding [3]: binds

B5: AF17 (protein, UniProt P55198 1-1093)
chain: MKEMVGGCCVCSDERGWAENPLVYCDGHACSVAVHQACYGIVQVPTGPWFCRKCESQERAARVRCELCPHKDGALKRTDNGGWAHVVCALYIPEVQFANVLTMEPIVLQYVPHDRFNKTCYICEEQGRESKAASGACMTCNRHGCRQAFHVTCAQMAGLLCEEEVLEVDNVKYCGYCKYHFSKMKTSRHSSGGGGGGAGGGGGSMGGGGSGFISGRRSRSASPSTQQEKHPTHHERGQKKSRKDKERLKQKHKKRPESPPSILTPPVVPTADKVSSSASSSSHHEASTQETSESSRESKGKKSSSHSLSHKGKKLSSGKGVSSFTSASSSSSSSSSSSGGPFQPAVSSLQSSPDFSAFPKLEQPEEDKYSKPTAPAPSAPPSPSAPEPPKADLFEQKVVFSGFGPIMRFSTTTSSSGRARAPSPGDYKSPHVTGSGASAGTHKRMPALSATPVPADETPETGLKEKKHKASKRSRHGPGRPKGSRNKEGTGGPAAPSLPSAQLAGFTATAASPFSGGSLVSSGLGGLSSRTFGPSGSLPSLSLESPLLGAGIYTSNKDPISHSGGMLRAVCSTPLSSSLLGPPGTSALPRLSRSPFTSTLPSSSASISTTQVFSLAGSTFSLPSTHIFGTPMGAVNPLLSQAESSHTEPDLEDCSFRCRGTSPQESLSSMSPISSLPALFDQTASAPCGGGQLDPAAPGTTNMEQLLEKQGDGEAGVNIVEMLKALHALQKENQRLQEQILSLTAKKERLQILNVQLSVPFPALPAALPAANGPVPGPYGLPPQAGSSDSLSTSKSPPGKSSLGLDNSLSTSSEDPHSGCPSRSSSSLSFHSTPPPLPLLQQSPATLPLALPGAPAPLPPQPQNGLGRAPGAAGLGAMPMAEGLLGGLAGSGGLPLNGLLGGLNGAAAPNPASLSQAGGAPTLQLPGCLNSLTEQQRHLLQQQEQQLQQLQQLLASPQLTPEHQTVVYQMIQQIQQKRELQRLQMAGGSQLPMASLLAGSSTPLLSAGTPGLLPTASAPPLLPAGALVAPSLGNNTSLMAAAAAAAAVAAAGGPPVLTAQTNPFLSLSGAEGSGGGPKGGTADKGASANQEKG
binding [3]: binds

Further lines, results first:

binding [1]: binds
Molecule: TPR (from UniProt P12270 1-2363)

binding [1]: binds
Molecule: NUMA1 (from UniProt Q14980 1-2115)

binding [4]: binds
B2: Wild-type AF10, expressed from cDNA (protein, UniProt P55197 1-1068)
chain: B1 chain

binding [2]: no binding
binding [3]: binds
B3: SIN3B (protein, UniProt O75182 1-1162)
chain: MAHAGGGSGGSGAGGPAGRGLSGARWGRSGSAGHEKLPVHVEDALTYLDQVKIRFGSDPATYNGFLEIMKEFKSQSIDTPGVIRRVSQLFHEHPDLIVGFNAFLPLGYRIDIPKNGKLNIQSPLTSQENSHNHGDGAEDFKQQVPYKEDKPQVPLESDSVEFNNAISYVNKIKTRFLDHPEIYRSFLEILHTYQKEQLNTRGRPFRGMSEEEVFTEVANLFRGQEDLLSEFGQFLPEAKRSLFTGNGPCEMHSVQKNEHDKTPEHSRKRSRPSLLRPVSAPAKKKMKLRGTKDLSIAAVGKYGTLQEFSFFDKVRRVLKSQEVYENFLRCIALFNQELVSGSELLQLVSPFLGKFPELFAQFKSFLGVKELSFAPPMSDRSGDGISREIDYASCKRIGSSYRALPKTYQQPKCSGRTAICKELDHWTLLQGSWTDDYCMSKFKNTCWIPGYSAGVLNDTWVSFPSWSEDSTFVSSKKTPYEEQLHRCEDERFELDVVLETNLATIRVLESVQKKLSRMAPEDQEKFRLDDSLGGTSEVIQRRAIYRIYGDKAPEIIESLKKNPVTAVPVVLKRLKAKEEEWREAQQGFNKIWREQYEKAYLKSLDHQAVNFKQNDTKALRSKSLLNEIESVYDEHQEQHSEGRSAPSSEPHLIFVYEDRQILEDAAALISYYVKRQPAIQKEDQGTIHQLLHQFVPSLFFSQQLDLGASEESADEDRDSPQGQTTDPSERKKPAPGPHSSPPEEKGAFGDAPATEQPPLPPPAPHKPLDDVYSLFFANNNWYFFLRLHQTLCSRLLKIYRQAQKQLLEYRTEKEREKLLCEGRREKGSDPAMELRLKQPSEVELEEYYPAFLDMVRSLLEGSIDPTQYEDTLREMFTIHAYVGFTMDKLVQNIARQLHHLVSDDVCLKVVELYLNEKKRGAAGGNLSSRCVRAARETSYQWKAERCMADENCFKVMFLQRKGQVIMTIELLDTEEAQTEDPVEVQHLARYVEQYVGTEGASSSPTEGFLLKPVFLQRNLKKFRRRWQSEQARALRGEARSSWKRLVGVESACDVDCRFKLSTHKMVFIVNSEDYMYRRGTLCRAKQVQPLVLLRHHQHFEEWHSRWLEDNVTVEAASLVQDWLMGEEDEDMVPCKTLCETVHVHGLPVTRYRVQYSRRPASP
